Results from patent US20030083294.
For at least one entry, the source does not settle the construct or the ends of the probe.

Chains of the proteins cited; added tags and fusions are not shown. A line that says so, or that is headed by a name, gives the form on record, which may keep a tag or linker.
coagulation factor IXa (FIXa) (Homo sapiens), one chain, as listed by the source, chain 1 of 2: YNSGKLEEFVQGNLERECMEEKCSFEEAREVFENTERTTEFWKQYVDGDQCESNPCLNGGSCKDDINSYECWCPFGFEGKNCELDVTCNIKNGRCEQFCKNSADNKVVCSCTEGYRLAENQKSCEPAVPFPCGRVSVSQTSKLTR

Tested on: coagulation factor IXa (FIXa) (Homo sapiens)
Test: binding assay
Conditions: 2'-F pyrimidines; range for family of 16 aptamers; minimal sequence shown; physiologic salt, 37 C

UGGGACCAUAACGACUACUCGUGAAUCCCA [FIXa aptamer (FIG. 7, SEQ 4)]
binding result: binds

GGGACCAUAACUCUAACGGGUGAAUCCC [FIXa aptamer (FIG. 7, SEQ 14)]
binding result: binds

GGGCGCCAUACGCACAUUGCUGCAUCGCCU [FIXa aptamer (FIG. 7, SEQ 13)]
binding result: binds

UGGGACUAUAUUCGGAAUCUGGACUCCCA [FIXa aptamer (FIG. 7, SEQ 8)]
binding result: binds

UGGGCCAUAACCACUUUGGUGAACCCA [FIXa aptamer (FIG. 7, SEQ 12)]
binding result: binds

GGGGACUAUACGUGAACGACUGCAUCCAC [FIXa aptamer (FIG. 7, SEQ 15)]
binding result: binds

UGGGUAAUAACUGUAUGGUGAACCCA [FIXa aptamer (FIG. 7, SEQ 16)]
binding result: binds

GGGGACUAUACCGGCAAUCGUGCAUCCCC [FIXa aptamer (FIG. 7, SEQ 3)]
binding result: binds

GGGUGAUAACCACUCUGGUGAACCC [FIXa aptamer (FIG. 7, SEQ 17)]
binding result: binds

GGGAUGGGCUAUAUACACGCUGGUGAUCCCAUCUC [FIXa aptamer (FIG. 7, SEQ 9)]
binding result: binds

GGAUGGGCGAUAACCAACAUGGUGAUCCCAUUC [FIXa aptamer (FIG. 7, SEQ 10)]
binding result: binds

UGGGCACUAUACGCAUCUUGCUGCCUG [FIXa aptamer (FIG. 7, SEQ 5)]
binding result: binds

GGGACCAUACGCACAUUGCUGAAUCCC [FIXa aptamer (FIG. 7, SEQ 7)]
binding result: binds

UGGGCGAUAUACACAUUGGUGAUCCCA [FIXa aptamer (FIG. 7, SEQ 6)]
binding result: binds

UGGGCCAUACGUGGACGACUGCACCCG [FIXa aptamer (FIG. 7, SEQ 11)]
binding result: binds
